Data on 2 substances can be found in US12576124 (dated 2026).

The nature of the data set: general procedure: solution-phase peptide synthesis; pentafluorophenyl ester (pentafluorophenol/DCC), DIPEA. The conditions noted are these: coupling step.

The substance “(2S,4R)-4-(2-((6S,9R,11R)-6-((S)-sec-butyl)-9-isopropyl-2,3,3,8-tetramethyl-4,7,13-trioxo-12-oxa-2,5,8-triazatetradecan-11-yl)thiazole-4-carboxamido)-5-(3-((2S,5S)-23-(2,5-dioxo-2,5-dihydro-1H-pyrrol-1-yl)-2,5-dimethyl-4,7,20-trioxo-10,13,16-trioxa-3,6,19-triazatricosanamido)-4-hydroxyphenyl)-2-methylpentanoic acid” displayed a step yield of 65% yield.

Take “(2S,4R)-4-(2-((1R,3R)-1-acetoxy-3-((2S,3S)—N,3-dimethyl-2-(2-methyl-2-(pyrrolidin-1-yl)propanamido)pentanamido)-4-methylpentyl)thiazole-4-carboxamido)-5-(3-((2S,5S)-23-(2,5-dioxo-2,5-dihydro-1H-pyrrol-1-yl)-2,5-dimethyl-4,7,20-trioxo-10,13,16-trioxa-3,6,19-triazatricosanamido)-4-hydroxyphenyl)-2-methylpentanoic acid”: the step yield turned out to be 61% yield.
